No constants are given. Whether binding was seen depends on the method and setting. In cells and extracts the contact can be indirect. Some results given as binding are weak or reduced against the parent protein; the word gives no strength.
Target: nucleolin (NCL), endogenous (human (endogenous in 293T, HeLa, BT549, MCF-7, MDA-MB-231)) (UniProt P19338)
Assay: co-IP; endogenous NCL immunoprecipitated with anti-NCL antibodies from lysates of 293T, BT549, MCF-7 and MDA-MB-231 cells, 4 °C overnight; co-immunoprecipitated endogenous AEG-1 detected by western blot

Protein sequences, listed by entry. Tags and fused reporters are not part of them.
UniProt P19338: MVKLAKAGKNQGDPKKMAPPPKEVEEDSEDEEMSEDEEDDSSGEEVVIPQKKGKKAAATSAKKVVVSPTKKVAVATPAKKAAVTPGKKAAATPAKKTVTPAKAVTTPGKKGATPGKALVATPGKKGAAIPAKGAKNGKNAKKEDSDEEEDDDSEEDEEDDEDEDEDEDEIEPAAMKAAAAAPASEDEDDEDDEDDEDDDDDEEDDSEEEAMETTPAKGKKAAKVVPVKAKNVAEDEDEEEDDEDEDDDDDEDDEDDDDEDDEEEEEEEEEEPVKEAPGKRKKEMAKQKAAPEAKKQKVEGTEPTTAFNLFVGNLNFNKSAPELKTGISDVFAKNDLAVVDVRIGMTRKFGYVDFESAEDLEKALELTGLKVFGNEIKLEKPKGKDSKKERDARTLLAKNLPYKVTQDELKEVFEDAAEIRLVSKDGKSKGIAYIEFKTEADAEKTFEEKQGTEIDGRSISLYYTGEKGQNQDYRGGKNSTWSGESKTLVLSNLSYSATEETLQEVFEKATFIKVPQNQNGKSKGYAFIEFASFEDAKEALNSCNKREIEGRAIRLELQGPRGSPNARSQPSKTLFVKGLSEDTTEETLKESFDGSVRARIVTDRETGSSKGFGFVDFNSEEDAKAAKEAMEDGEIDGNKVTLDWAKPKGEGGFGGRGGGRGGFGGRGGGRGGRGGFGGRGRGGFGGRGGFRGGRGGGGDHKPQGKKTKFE

binding: binds
B1: Astrocyte elevated gene-1 (AEG-1), endogenous (protein, UniProt Q86UE4 1-582)
chain: MAARSWQDELAQQAEEGSARLREMLSVGLGFLRTELGLDLGLEPKRYPGWVILVGTGALGLLLLFLLGYGWAAACAGARKKRRSPPRKREEAAAVPAAAPDDLALLKNLRSEEQKKKNRKKLSEKPKPNGRTVEVAEGEAVRTPQSVTAKQPPEIDKKNEKSKKNKKKSKSDAKAVQNSSRHDGKEVDEGAWETKISHREKRQQRKRDKVLTDSGSLDSTIPGIENTITVTTEQLTTASFPVGSKKNKGDSHLNVQVSNFKSGKGDSTLQVSSGLNENLTVNGGGWNEKSVKLSSQISAGEEKWNSVSPASAGKRKTEPSAWSQDTGDANTNGKDWGRSWSDRSIFSGIGSTAEPVSQSTTSDYQWDVSRNQPYIDDEWSGLNGLSSADPNSDWNAPAEEWGNWVDEERASLLKSQEPIPDDQKVSDDDKEKGEGALPTGKSKKKKKKKKKQGEDNSTAQDTEELEKEIREDLPVNTSKTRPKQEKAFSLKTISTSDPAEVLVKNSQPIKTLPPATSTEPSVILSKSDSDKSSSQVPPILQETDKSKSNTKQNSVPPSQTKSETSWESPKQIKKKKKARRET
